Whole data set: some 33,000 sequences, median “E-score (-0.5 to 0.5)” near -0.0014, cut for the highest 2% near 0.25. This is one part of the list.
target: T1, Cad1 (UniProt P24813); assay: PBM E-score (8-mer binding enrichment) (E-score (-0.5 to 0.5)); higher = stronger / more preferred TF binding; conditions: protein concentration: 100 nM; construct: GST-full length
T1 sequence: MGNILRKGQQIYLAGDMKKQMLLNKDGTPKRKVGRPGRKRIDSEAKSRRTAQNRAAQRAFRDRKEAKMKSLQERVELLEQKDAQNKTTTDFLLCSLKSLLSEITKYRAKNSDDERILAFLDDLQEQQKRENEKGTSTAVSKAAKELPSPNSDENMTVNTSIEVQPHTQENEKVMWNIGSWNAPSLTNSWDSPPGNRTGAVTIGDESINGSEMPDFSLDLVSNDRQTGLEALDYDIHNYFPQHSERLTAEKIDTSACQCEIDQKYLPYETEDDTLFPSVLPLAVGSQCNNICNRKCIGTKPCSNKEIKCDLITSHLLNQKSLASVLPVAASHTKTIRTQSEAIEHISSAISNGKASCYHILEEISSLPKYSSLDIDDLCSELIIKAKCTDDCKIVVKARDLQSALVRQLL
How it was run: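 For each ungapped eight-base word taken together with its reverse complement, the Universal PBM Analysis Suite assigned an E-score. Binding data came from GST-tagged yeast transcription factors, applied at about 100-200 nM, on universal all-10-mer Agilent arrays made double-stranded by primer extension. Fluorescent anti-GST marked bound protein, and scans were normalised with masliner.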

Sequence	PBM E-score
CTGCGATC	-0.06
AAGTCAAC	0.0445
CAGCGACC	-0.301
AATATCAC	0.125
AGTTCTCG	0.162
TCGCCAAA	-0.0355
ATTTGCTG	0.145
CCTCATTA	0.0805
ATCTTAAA	0.131
ACGGCTCT	-0.0116
ATCCCCGA	-0.159
CAATAAGA	0.0132
ATACTTCA	-0.0179
CAAGCGGA	-0.131
GAGCCCCC	-0.447
CCTTGCTA	-0.00856
CTAGTGAG	-0.0727
ATCTTAAG	-0.0679
CTTAACTA	0.283
CGTCTGAC	0.0953
TGTAACAA	0.0148
CAGGTGGA	-0.0519
AATAGGGC	-0.064
ACTTTCAT	0.0146
ATCAGAAA	0.1

Copied from the list:
CTGCGATC | PBM E-score: -0.06
AGTTCTCG | PBM E-score: 0.162
ACTTTCAT | PBM E-score: 0.0146
CCTTGCTA | PBM E-score: -0.00856

The listing continues.

Sequence	PBM E-score
AACGCCCC	-0.131
ATTCTCAG	0.00929
CAATATGA	0.0827
CACCGCCG	-0.257
AATCTCTA	0.159
CGTTGCAA	0.0608
ATACCCTA	0.133
CTGTATCC	-0.00598
CAAGCTCG	0.0678
CCGTTGGC	-0.0613
ATAAACGC	0.086
GCTAAGAC	0.0439
GTAGCCCA	-0.0454
AGCCTGGC	-0.0332
CGGAACGC	0.0834
GCAGGGGA	-0.418
AGTTTAAC	-0.0817
GATGCGGC	-0.101
CGAGACTA	-0.0176
CGCTTGGC	-0.142
CGGACCTC	0.0619
GCTATAGA	-0.154
CCGGAGTC	-0.0932
CACCCCTA	-0.0998
CTGCCTGC	-0.0197

Sequence	PBM E-score
AGTAGACC	-0.0558
GACTGTAA	0.0554
GGAGCCCA	-0.291
AGAGCTGG	-0.0587
GGGGCCAA	-0.249
GTAGTTAA	0.113
ACTTAGGA	-0.135
GCCTTTGA	-0.00314
CAGACGCG	-0.0361
AGTAGATG	-0.0467
CAGGCCAC	-0.0933
AGCTCCGA	0.0663
CGGGCCCG	0.177
CCGCTAAG	0.111
AGCTTGGC	-0.126
ACTCATTG	-0.189
AGCACGCG	0.164
ACCGGGAA	0.0889
GGGAGTAA	-0.0135
GTGACACA	0.159
CTATTCAA	0.154
AGGGGTAC	-0.156
CTAGGGCC	-0.0488
CCGATCAC	0.169
AGGGCCAT	-0.175

Sequence	PBM E-score
AGCCCTGC	-0.128
GTTCGTCA	-0.124
CGTGGGGA	-0.0675
TAAACCGA	-0.0449
AGCCATGG	-0.0339
CTCATGTC	-0.118
GCAGGTGA	-0.0228
AACGGCTT	-0.00056
CAGATGAG	0.089
TACGGCTA	-0.144
ATCGGTTC	-0.089
AGCCTTCC	-0.327
ACCTAACC	0.0931
CCAATCTC	0.0449
ACATGACA	0.159
AAATCAAG	-0.0621
GTATCTTA	0.287
CCAAATAA	0.15
ATGGTATG	-0.0437
CCAGGTGA	-0.102
ACCGCTTC	-0.068
AGGGGGAC	-0.447
GAGACGAA	-0.0602
GCGTCTCC	-0.00342
CTTCGTTC	-0.0316

Sequence	PBM E-score
CGTGTTCC	0.0432
CGAGACCC	0.0594
ATACGGTA	0.0931
ATACCACA	0.113
GCGGTAGC	0.00984
CACCTGGC	-0.212
GAGTAGGC	-0.156
AGGTGCCA	-0.026
AGATGGAG	-0.0255
CTTGATGC	-0.0357
ATAATGAT	0.12
GAAAAAAC	0.0982
CTTTCTCA	0.121
AAGAACTT	0.223
ACCCAACC	-0.00591
TCGGCAGA	-0.0578
AGTTAAAT	-0.069
GTCAAGCA	-0.189
CGGTCTCA	-0.0422
GTCCCTCA	-0.154
ACAGTAAG	0.0915
ATCTCCAA	0.0729
CCGGAAGC	0.165
TAAGTGGA	0.118
AGTCGCTG	-0.0625

Sequence	PBM E-score
ATTCAACC	-0.0124
GCTACAAC	-0.031
TAGCGGGA	-0.143
CTACAATA	0.0878
TAACTGCA	0.109
CGCTCGTA	-0.0113
AAGTGAGA	-0.0014
ATTCTCTC	-0.0842
ATCATCAA	0.129
TCGATGAA	-0.0614
CCGAGCAG	-0.143
AACACCAG	-0.0336
ATTAACCA	-0.0314
AACGAGGT	-0.019
CCTCCGGA	-0.0221
GTGTTTTA	-0.0534
TCAGCAGA	0.164
AGTACACT	-0.148
GTTCCGAA	0.21
TAGGGGGA	-0.372
AACTGGTA	-0.0729
TTTCAAAA	0.0245
CCCCGATC	-0.341
CTAATGGA	-0.0567
ACGAGGCT	0.158

Sequence	PBM E-score
CTATATTC	-0.00266
GGGCATGA	-0.0754
CGCCGTAC	0.0265
GCATCTAC	0.0907
CTGCTCTC	-0.122
GACGACCC	-0.00081
ACTCCGAG	0.0609
ACTCAATG	-0.00434
ACGATTCT	0.0117
GTTTTATA	-0.00371
ACCTCGGG	-0.173
GAGGGTAA	-0.0711
AACTCCCT	-0.132
CATTTATC	0.15
ACAAAACC	0.106
GACAGATC	0.198
CGAGCAAG	-0.046
ACAGTTCT	-0.0349
TCTGCGAA	-0.137
GCGGTGAC	-0.0159
TAAGGCCA	0.0507
GCGATTGA	-0.0173
CTACGCGC	0.0221
ACGTGTCA	0.0987
CCGTGTAA	-0.117

Sequence	PBM E-score
CTACTCAA	0.165
AAGGCACC	-0.0905
ACTCAGTA	0.0874
GACTCAGC	0.0517
CCACAAGC	-0.118
CAACGCCG	0.0844
AACAGAAG	0.0569
GCGGGGCA	0.0386
CAGCTTTC	-0.054
CCATCACC	0.0432
GGTCGCAA	-0.138
GCGGGGGA	-0.364
ATCACTTG	-0.056
ATATAGGA	0.166
GCCTATCA	0.169
CGTATAAA	0.139
ATGTGATC	0.185
ATGGGTTC	-0.181
AGGGTATA	0.105
TCAAATAA	0.0928
ATTTCTCA	0.0134
CGGGGTAC	-0.132
CAGGTCGC	-0.0873
ACTGTAGA	-0.0706
AAGCTTTA	0.13

Some of the entries so far, in markdown:

| Sequence | PBM E-score |
| --- | --- |
| CAGCTTTC | -0.054 |
| CCATCACC | 0.0432 |
| GCCTATCA | 0.169 |

Later entries.

Sequence	PBM E-score
CAGCGTAC	-0.0907
CTCCTTTC	-0.313
AATGTCGC	0.0509
GGGTCGAC	0.0995
CTCCGGCA	0.0638
GACCCAAC	0.113
CCAAGGCA	-0.139
ACCGTGTC	-0.0471
ACACTTCC	-0.0945
ACTATCAA	0.194
CCAGCCGA	-0.0214
CGGAACTC	0.052
AATAGACC	-0.0647
ACCGTAAT	0.0187
GATGTCAC	0.146
ATGAGAAC	0.142
ATCATGAC	0.175
ACAAGCGG	0.0904
CGGCGTCA	-0.0161
